From patent US10065951B2, “Small molecule transcription modulators of bromodomains” (Icahn School of Medicine at Mount Sinai, priority 2014, dated 2018)
Some of these results come from one statement about several compounds together.

Tested on: rat primary oligodendrocyte progenitors
Assay: Dose-dependent cytotoxicity in primary oligodendrocyte progenitor cultures (degraded O4+ marker)
Type: cell-based
Settings: 3 days differentiation

## CC(=O)NCCCCCCn1c2c(c3ccccc31)C(=O)NCC2 [4d, 2,3,4,5-tetrahydro-5-(6′-acetamidohexyl)-1H-pyrido-[4,3-b]indol-1-one]
  concentration at which significant cytotoxicity was observed: over 50 μM

## CC(=O)NCCCCn1c2c(c3ccccc31)C(=O)NCC2 [4c, 2,3,4,5-tetrahydro-5-(4′-acetamidobutyl)-1H-pyrido-[4,3-b]indol-1-one]
  concentration at which significant cytotoxicity was observed: over 50 μM
